The test system of this test is HEK293A TEAD-LUC reporter. The experiment in a line: TEAD-luciferase reporter activity (YAP activation), robust Z score vs plate; higher = stronger YAP/TEAD activation. To be noted: 24 h. For orientation: In a reporter assay the amount or activity of a reporter protein is the signal.

TEAD-luciferase reporter activity data for 26 molecules are collected here from the supplement of paper PMC10735217.

Where a name gives a salt, the structure may show the parent alone. This is one part of the list. Single values are uncertain here, since repeats match poorly.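 Human kidney-derived cells stably carry a construct in which eight TEAD-binding elements drive luciferase, measured by luminescence in a drug-repurposing library screen. A hit is any compound whose signal exceeds the plate mean by more than five robust Z scores.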

With `CC(C)[C@H](NC(=O)[C@H](CC(=O)O)NC(=O)[C@H](CCCCN)NC(=O)[C@@H](N)CCCNC(=N)N)C(=O)O` [Thymopoietin II (32-35)], the TEAD-luciferase reporter activity by setting is: (compound concentration: 200 nM) inactive: 0.556; (compound concentration: 2 uM) inactive: -0.187; (compound concentration: 10 uM) inactive: 0.689.
The matching figures for `O=C(O)C1=Cc2cc(Cl)cc(Cl)c2O[C@@H]1C(F)(F)F`: inactive: 0.312, inactive: 0.534 and inactive: -1.21.
The matching figures for `CCCc1c(OCc2ccc(C(O)c3cccc(C(=O)O)c3)cc2)ccc(C(C)=O)c1O` (centres undefined): inactive: 0.517, inactive: -0.574 and inactive: -0.596.
Turning to `O=C([O-])CC(O)(CC(=O)[O-])C(=O)[O-]` [sodium citrate], the TEAD-luciferase reporter activity was inactive: -1.11 (compound concentration: 200 nM) and inactive: -0.4 (compound concentration: 10 uM).
As to `O=C(c1cccc(Cl)c1)N1CCCC(C(=O)N2CCC(c3ccccc3)CC2)C1` (centres undefined), the TEAD-luciferase reporter activity is inactive: -0.269 (compound concentration: 200 nM) and inactive: 1.47 (compound concentration: 10 uM).
For the molecule `CC(C)C1=C2[C@H]3CC[C@@H]4[C@@]5(C)CC[C@H](OC(=O)CC(C)(C)C(=O)O)C(C)(C)[C@@H]5CC[C@@]4(C)C3(C)CC[C@@]2([C@@H](O)CN(CCN(C)C)Cc2ccc(Cl)cc2)CC1=O` (some centres undefined), the TEAD-luciferase reporter activity (compound concentration: 200 nM) is inactive: 0.369, the TEAD-luciferase reporter activity (compound concentration: 2 uM) is inactive: 0.0272 and the TEAD-luciferase reporter activity (compound concentration: 10 uM) is inactive: 0.0944.
Consider `CSc1ccc([C@H]2CN3CCC[C@H]3c3ccccc32)cc1`, for which the TEAD-luciferase reporter activity was inactive: -1.08 (compound concentration: 200 nM), inactive: -1.46 (compound concentration: 2 uM) and inactive: 0.766 (compound concentration: 10 uM).
Take `COc1ccc(C)cc1NS(=O)(=O)c1cc(OC2CCNCC2)c2occc2c1`: the TEAD-luciferase reporter activity reads like this: (compound concentration: 200 nM) inactive: -0.5; (compound concentration: 2 uM) inactive: -0.115; (compound concentration: 10 uM) inactive: -0.851.
Consider `C[C@]12CC[C@H]3[C@@H](CCC4=CC(=O)CC[C@@]43C)[C@@H]1CC[C@@H]2C(=O)CO`, for which the TEAD-luciferase reporter activity by setting is: (compound concentration: 200 nM) inactive: 4.18; (compound concentration: 2 uM) inactive: -0.117; (compound concentration: 10 uM) inactive: 0.0988.
Take `COc1ccc(C(=O)N2CCCC2C(=O)N2CCC(c3ccccc3)CC2)cc1` (centres undefined): the TEAD-luciferase reporter activity was inactive: -0.65 (compound concentration: 200 nM) and inactive: -1.69 (compound concentration: 10 uM).
As to `CC1CCC2C(C)(C)C3CC12CCC3(C)O` (single isomer, unassigned; (+)) [(+)-Cedrol], the TEAD-luciferase reporter activity (compound concentration: 200 nM) was inactive: 1.72, the TEAD-luciferase reporter activity (compound concentration: 2 uM) is inactive: -1.05 and the TEAD-luciferase reporter activity (compound concentration: 10 uM) is inactive: -0.533.
The corresponding values for `CC1=CC[C@H](C(C)(C)O)C[C@H]1O` [Cyclidrol] are inactive: 0.277, inactive: 1.6 and inactive: 0.829.
Consider `Oc1ncc(F)cn1` [5-fluoro-2-pyrimidone], for which the TEAD-luciferase reporter activity was inactive: -0.833 (compound concentration: 200 nM) and inactive: -0.925 (compound concentration: 10 uM).
With `Oc1ncc(F)cn1`, the TEAD-luciferase reporter activity (compound concentration: 2 uM) is inactive: 0.71.
As to `CCOC(=O)c1cc(=O)c2c(OCC(COc3cccc4oc(C(=O)OCC)cc(=O)c34)OC(=O)[C@@H](N)CCCCN)cccc2o1` [Cromoglycate lisetil hydrochloride], the TEAD-luciferase reporter activity runs as follows: (compound concentration: 200 nM) inactive: -0.237; (compound concentration: 2 uM) inactive: -0.454; (compound concentration: 10 uM) inactive: 1.04.
As to `COCCN1CCC(N(Cc2ccc(-c3ccc(C(F)(F)F)cc3)cc2)C(=O)c2cccs2)CC1`, the TEAD-luciferase reporter activity reads like this: (compound concentration: 200 nM) inactive: -0.455; (compound concentration: 2 uM) inactive: -1.82; (compound concentration: 10 uM) inactive: -0.176.
The matching figures for `C[n+]1ccn(C[C@@]2(C)[C@H](C(=O)[O-])N3C(=O)C[C@H]3S2(=O)=O)n1`: inactive: 1.7, inactive: 0.276 and inactive: -1.58.
For `Cc1nc(Nc2n[nH]c3c2CN(C(=O)N[C@H](CN(C)C)c2ccccc2)C3(C)C)c2sccc2n1`, the TEAD-luciferase reporter activity is inactive: -2.35 (compound concentration: 200 nM), inactive: 3.68 (compound concentration: 2 uM) and inactive: -1.36 (compound concentration: 10 uM).
The matching figures for `CC(C)(Sc1cc(C(C)(C)C)c(O)c(C(C)(C)C)c1)Sc1cc(C(C)(C)C)c(OC(=O)CCC(=O)O)c(C(C)(C)C)c1` [Succinobucol]: inactive: -0.689, inactive: -0.0124 and inactive: 1.63.
The matching figures for `Cc1cc(C(C)(C)C)c(O)c(C(C)(C)C)c1` [butylated hydroxytoluene]: inactive: 0.993, inactive: -0.659 and inactive: -0.11.
As for `COc1ncc(-c2ccc3nccc(-c4ccnnc4)c3c2)cc1NS(=O)(=O)c1ccc(F)cc1F` [omipalisib], the TEAD-luciferase reporter activity (compound concentration: 2 uM) was inactive: -2.2.
For `COc1ncc(-c2ccc3nccc(-c4ccnnc4)c3c2)cc1NS(=O)(=O)c1ccc(F)cc1F`, the TEAD-luciferase reporter activity is inactive: -1.56 (compound concentration: 200 nM) and inactive: -2.63 (compound concentration: 10 uM).
Regarding `COc1cc2nc(N3CCN(C(=O)OC(C)(C)C)CC3)nc(N)c2cc1OC`, the TEAD-luciferase reporter activity reads like this: (compound concentration: 200 nM) inactive: -1.23; (compound concentration: 2 uM) inactive: -0.488; (compound concentration: 10 uM) inactive: 1.63.
The corresponding values for `Cc1cc(OCP(=O)(O)O)cc(C)c1Cc1ccc(O)c(C(C)C)c1` are inactive: -1.65, inactive: -1.08 and inactive: -0.821.
Consider `NS(=O)(=O)c1ccc(N2N=C(C(F)(F)F)CC2c2c[nH]c3c(Cl)cccc23)cc1` (centres undefined), for which the TEAD-luciferase reporter activity is, setting by setting: (compound concentration: 200 nM) inactive: -0.637; (compound concentration: 2 uM) inactive: -0.999; (compound concentration: 10 uM) inactive: -0.89.
The corresponding values for `[2H]C([2H])([2H])n1c([N+](=O)[O-])cnc1C(C)C` are inactive: -0.748, inactive: -0.611 and inactive: -1.47.
